The record followed here is article PMC7819943, “Rice protein-binding microarrays: a tool to detect cis-acting elements near promoter regions in rice”.

The list shows a part of the results.

The test addresses T1, OsSMF1 (Oryza sativa, UniProt Q6ZLB0 1-436).
T1 sequence: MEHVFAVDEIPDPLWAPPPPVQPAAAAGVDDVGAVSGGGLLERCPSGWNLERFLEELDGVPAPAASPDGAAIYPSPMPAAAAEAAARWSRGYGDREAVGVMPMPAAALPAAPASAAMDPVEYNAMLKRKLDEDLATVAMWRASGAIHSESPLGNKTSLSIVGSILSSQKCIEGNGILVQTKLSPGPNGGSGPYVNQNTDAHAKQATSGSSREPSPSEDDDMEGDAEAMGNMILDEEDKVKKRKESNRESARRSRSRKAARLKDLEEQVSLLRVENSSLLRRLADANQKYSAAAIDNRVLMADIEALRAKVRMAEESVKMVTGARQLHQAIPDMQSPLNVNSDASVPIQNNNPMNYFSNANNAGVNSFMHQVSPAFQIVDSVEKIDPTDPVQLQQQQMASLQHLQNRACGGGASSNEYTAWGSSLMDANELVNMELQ
In words: protein-binding microarray (RPBM); PBS, 2% BSA, 51.3 ng/ul salmon testes DNA, 50 uM zinc acetate, 200 nM TF, 25 C, 1 h; high values mean tight binding. Conditions: protein: recombinant; tags: N-terminal polyhistidine and DsRed monomer fusion (pET32a); chain copies: 2; label: CyDye5-dUTP incorporated in the synthesized complementary strand; 3' TTTTT single-stranded linker to array surface; dsDNA, one strand shown. In a few lines: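 For the binding signal, per-feature fluorescence intensity was read in arbitrary units on an Axon 4000B scanner. Before scanning, a 2% BSA-blocked custom Agilent array made double-stranded with Cy5-dUTP was washed after 1 h at 25 °C with 200 nM protein and 50 µM zinc acetate. The proteins were Ni–NTA-purified transcription factors with N-terminal polyhistidine and DsRed fusions, expressed in E. coli BL21-CodonPlus.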
Take “ATAAATCACGTGTCTCTTCTCTTGGTTTGCACATTCTTGCCGGAGTCACCTAGTGCAG”: the binding signal was 3670 fluorescence intensity (a.u.). As for “AGAAAATTCTGAAAATGAGGAACCTTTCATTATTTATGTCCGGAGTCACCTAGTGCAG”, the figure is 6420 fluorescence intensity (a.u.). As for “GTATATCCATAAGCGAAATGACGGGGCTATTAGAGTGGCACGGAGTCACCTAGTGCAG”, the figure is 3440 fluorescence intensity (a.u.).

Regarding “AGAAGAGTGGCGTTGGGGACGTGGACGGCGAGAGCAGGTGCGGAGTCACCTAGTGCAG”, the binding signal was 5850 fluorescence intensity (a.u.). The value for “TTGCTGCCACAGCTAAAACAGTCCAGCTACCATACATGAGCGGAGTCACCTAGTGCAG” was 25200 fluorescence intensity (a.u.); that for “CGGTGCCGAGCTTGGCCGCCAGCTCGTCGGCGCCGAGGTCCGGAGTCACCTAGTGCAG” was 3410 fluorescence intensity (a.u.); that for “CTCTGGGGCTCTGGGCAGGGCAACCAGCGGGTGGGGAGGACGGAGTCACCTAGTGCAG” was 3540 fluorescence intensity (a.u.). Turning to “GCGCCGAGGCCACGATGACGCCGCCGCCCGCTTGTCCGGGCGGAGTCACCTAGTGCAG”, the binding signal is 3180 fluorescence intensity (a.u.). In the case of “AGAGTGTTTAGATCCAAGAGTGTAAAGTTTTGACGTGTCACGGAGTCACCTAGTGCAG”, the binding signal is 7670 fluorescence intensity (a.u.). With “CCAAGCCGCGCCACCACCGGCAACGCCACCTCTTGAGTCGCGGAGTCACCTAGTGCAG”, the binding signal was 3310 fluorescence intensity (a.u.). Take “TAACTATTTAGACGATGAAGGGCCTGTTCATTTTGATGTCCGGAGTCACCTAGTGCAG”: the binding signal was 4400 fluorescence intensity (a.u.). Turning to “TCTCAAACTTTATTAACACAATATCTCCAGCCTTTTCTAGCGGAGTCACCTAGTGCAG”, the binding signal is 37800 fluorescence intensity (a.u.). As for “TGCACCTGTGGCCGCATCACAATCATCATTGACACAACCGCGGAGTCACCTAGTGCAG”, the figure is 5220 fluorescence intensity (a.u.); as for “CCGCGCTACCGCTGCCGGATGACGTCATGCAGGAGCAGGACGGAGTCACCTAGTGCAG”, 10900 fluorescence intensity (a.u.). On to “GCCCGCCGCCTCGGCGTGCGTGGCCCAGCCCAACTAAAACCGGAGTCACCTAGTGCAG”, for which the binding signal is 3150 fluorescence intensity (a.u.). Take “TCCCCTAGGAAGAGGCACACGCACCGGTTGGTCATCATCCCGGAGTCACCTAGTGCAG”: the binding signal is 3520 fluorescence intensity (a.u.). The value for “TGACATGCAAGTTGATGTGATGCCAGCTTGCTACTATGCGCGGAGTCACCTAGTGCAG” was 4460 fluorescence intensity (a.u.). The value for “GGCACGTATCGGTCTCGTCACGCTCGAGCCCGAATCCGCACGGAGTCACCTAGTGCAG” was 3160 fluorescence intensity (a.u.).

Take “GACTCCTTAGGCGGTTTCGTCCTACGTGGCACTTATGTGGCGGAGTCACCTAGTGCAG”: the binding signal was 17800 fluorescence intensity (a.u.).

For the sequence “TGCACAGCACGGCAATACACGTCTTTATCCTCTCAACGTACGGAGTCACCTAGTGCAG”, the binding signal was 4710 fluorescence intensity (a.u.). Consider “AGATCTAAACTGCTTACTTGCCCACAAATGCCGTTGTTGTCGGAGTCACCTAGTGCAG”, for which the binding signal was 27400 fluorescence intensity (a.u.). As for “AAGGCTAATGTGGATGACAAGGCAGTGTCTGAAAATACCACGGAGTCACCTAGTGCAG”, the figure is 5390 fluorescence intensity (a.u.); as for “GGATACGAAATGGACGGCCCGAACGAGACCCAGGATATAACGGAGTCACCTAGTGCAG”, 33600 fluorescence intensity (a.u.); as for “TTCTTCCCGCTCACCACGTCAGCGCCACGTGAGCAAAACCCGGAGTCACCTAGTGCAG”, 32500 fluorescence intensity (a.u.). Take “GGCCACGTCACGCAAAACCCGCAGAATTACGCGATTCGCTCGGAGTCACCTAGTGCAG”: the binding signal is 9520 fluorescence intensity (a.u.). As for “CCATCTGCCTGTGAATCAGATTTGTCATGTTCGTAACCATCGGAGTCACCTAGTGCAG”, the figure is 4400 fluorescence intensity (a.u.). The value for “TTTAATGATCCATGCATGTGTCTAAATATTTGATGCGATGCGGAGTCACCTAGTGCAG” was 3230 fluorescence intensity (a.u.); that for “AATCCAGAGATGATGTGTCCTACAGCTCACTGATCATATCCGGAGTCACCTAGTGCAG” was 7310 fluorescence intensity (a.u.). For the sequence “AATTTTATATATGGGGACTATAATCTCCCTTCTAATCCCCCGGAGTCACCTAGTGCAG”, the binding signal was 3230 fluorescence intensity (a.u.). As for “TAATTCATCCATGTCCATGTCATATTTGTTTACTCGTGGACGGAGTCACCTAGTGCAG”, the figure is 5440 fluorescence intensity (a.u.); as for “CTTGTTTCACCTGTCATACACACGTTACGTCTTAGAGTCCCGGAGTCACCTAGTGCAG”, 5140 fluorescence intensity (a.u.). The value for “GCTTGTGGCCTGCGTAGTGCTAGAAATATAGTAATCCCTCCGGAGTCACCTAGTGCAG” was 3440 fluorescence intensity (a.u.). On to “GTAGGGAGTTGTTGTATTGTGAGCCAAAAGGTGTGTATTGCGGAGTCACCTAGTGCAG”, for which the binding signal is 3350 fluorescence intensity (a.u.). For the sequence “AGAAGACAACAGTGAGGAACTGAGGACACGTGTACTTGGACGGAGTCACCTAGTGCAG”, the binding signal was 12600 fluorescence intensity (a.u.). The value for “AATAAATTGCCCGCACATGTGTGCGGGCTTTCTTCCTAATCGGAGTCACCTAGTGCAG” was 4260 fluorescence intensity (a.u.); that for “GTAGATACCCGTCAGCCTCTGCATCGGCGTCCATGTCCATCGGAGTCACCTAGTGCAG” was 3700 fluorescence intensity (a.u.); that for “AGGATTCCGGGTCGTGTTTGACGTGGAGAAGGAACGGATCCGGAGTCACCTAGTGCAG” was 6370 fluorescence intensity (a.u.). As for “GATACTGCAGGCGCTGGTGAGCGTGGACATGGCGGTGCTGCGGAGTCACCTAGTGCAG”, the figure is 5130 fluorescence intensity (a.u.); as for “AAGTAACAATAATGATATAGTGTTTTGCAAACAGAGTACACGGAGTCACCTAGTGCAG”, 3390 fluorescence intensity (a.u.). Regarding “AACTTCAATTTCAAATAACAGGGTCAAATAAACAAACCTACGGAGTCACCTAGTGCAG”, the binding signal is 4590 fluorescence intensity (a.u.).

Turning to “CATTGCTGAACATATAAATTCCACGTTGCTGAATAAGCACCGGAGTCACCTAGTGCAG”, the binding signal is 4240 fluorescence intensity (a.u.). The value for “GTCTAAGTAGTAGAGTGCTACAAATTCCAGTTCCCTCCCGCGGAGTCACCTAGTGCAG” was 5430 fluorescence intensity (a.u.).
